The values that follow come from PubChem BioAssay AID1487 (National Center for Advancing Translational Sciences (NCATS), 2009).

Several values for one entry are separate records, joined by “and”; a condition that tells them apart may be missing. Identical values can stand only once. The list shows a part of the results. Further columns of the screen follow, without active or inactive calls. Compounds called inactive in the main read-out are mostly missing here. Potencies come from curve fits of mixed quality, noted in brackets.

This test in a line: qHTS Assay for Modulators of Lamin A Splicing. Conditions: HeLa LMNA splicing GFP/RFP minigene ratio, 48 h. The essentials: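 Read-out is the ratio of GFP to DsRed2 object intensity, acquired by 488 nm laser-scanning cytometry on HeLa lamin A-EGFP minigene reporter cells. Compound incubation 48 hrs at 37 °C in Opti-MEM with 2% FBS; DMSO 0.5% final.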
For orientation: qHTS replaces the single test concentration by a dilution series.

[1] abbreviates: measured here: RFP viability control channel.
Setting [2] is: measured here: GFP splicing reporter channel.

As for `CNC(=O)c1c(NC(=O)/C=C/c2ccccc2)sc2c1CCC2`, the AC50 under setting [1] is 12.6 µM [rising, single point].

For the compound `CCOc1cc(/C=C(/C#N)C(=O)Nc2ccc(O)cc2)cc(Br)c1O`, the AC50 under setting [1] is 1.26 µM [rising, partial curve].

Regarding `Cc1cc(NC(=O)COC(=O)c2ccco2)no1`, the AC50 under setting [2] was 0.355 µM [falling, full curve].

Take `COC(=O)c1ccc(/C=C/C(=O)c2ccc(OC)c(OC)c2)cc1`: the concentration at half-maximal activity (AC50) reads like this: under setting [2], 11.2 µM [falling, single point]; under setting [1], 20 µM [falling, single point].

Take `N#CCSc1nc2ccc(N3CCCCC3)cc2c(=O)n1Cc1ccccc1`: the half-maximal activity concentration (AC50) reads like this: under setting [2], 3.16 µM [falling, single point]; under setting [1], 3.98 µM [falling, partial curve].

With `CC(=O)NC1=C(C#N)C(c2ccccc2)c2c(ccc3ccccc23)O1` (centres undefined), the half-maximal activity concentration (AC50) under setting [1] is 28.2 µM [rising, single point].

Regarding `O=C(N1CCCCC1)N1CCN(S(=O)(=O)c2ccc(Cl)cc2)CC1`, the AC50 under setting [2] is 2 µM [falling, partial curve].

`CSCCC(NC(C)=O)C(=O)OCC(=O)N(c1ccccc1)c1ccccc1` (centres undefined): the concentration at half-maximal activity (AC50) under setting [1] was 7.08 µM [falling, full curve, poor fit].

In the case of `COc1ccc(C(=O)/C=C/C(=O)N(Cc2ccc(F)cc2)C(C(=O)NC2CCCCC2)c2ccncc2)c(O)c1` (centres undefined), the AC50 runs as follows: under setting [2], 31.6 µM [rising, single point]; under setting [1], 35.5 µM [rising, single point].

Turning to `Cc1ccc(N(CC(=O)NC(C)(C)C)C(=O)CNC(=O)c2cccs2)c(C)c1`, the AC50 runs as follows: under setting [2], 8.91 µM [falling, partial curve, poor fit]; under setting [1], 12.6 µM [falling, partial curve, poor fit].

As for `O=C(c1ccccc1)c1cc([N+](=O)[O-])ccc1N1CCOCC1`, the AC50 under setting [1] is 2 µM [rising, partial curve, poor fit].

For `O=C(c1ccccc1)c1nn(-c2ccccc2)c2nnc(Cc3ccccc3)c(=O)n12`, the AC50 under setting [1] is 35.5 µM [rising, single point].

Consider `CNC(=S)NNC(=O)c1cccc(N(C)C)c1`, for which, under setting [1], the concentration at half-maximal activity (AC50) is 11.2 µM [rising, partial curve].

As for `CCCC(=O)Nc1nc2ccc(NC(=O)c3c(F)c(F)c(OC)c(F)c3F)cc2s1`, the AC50 under setting [1] was 39.8 µM [falling, partial curve, poor fit].

In the case of `CCCCn1c(SCc2cccc([N+](=O)[O-])c2)nc2ccsc2c1=O`, the AC50 reads like this: under setting [2], 10 µM [rising, partial curve]; under setting [1], 14.1 µM [rising, partial curve].

As to `Cc1sc2ncnc(NCC(C)(C)N3CCOCC3)c2c1C`, the AC50 was 7.08 µM [rising, full curve, poor fit] under setting [2] and 8.91 µM [rising, partial curve] under setting [1].

Turning to `CC(C)Cn1c(SCC(=O)NC(=O)NC2CCCC2)nc2ccccc21`, under setting [1], the AC50 is 12.6 µM [rising, partial curve].

Turning to `O=C(O)c1ccc(N2CCOCC2)c(N2C(=O)C3C4C=CC(C4)C3C2=O)c1` (centres undefined), the AC50 under setting [2] was 0.0178 µM [rising, full curve, poor fit].

As to `Cc1ccc(C(NC(=O)C2CCCCC2)c2c(O)ccc3ccccc23)cc1` (centres undefined), the AC50 under setting [1] was 15.8 µM [rising, partial curve].

Turning to `COc1ccc(Cl)cc1-n1c(C)cc(C(=O)OCC(=O)N2CC(=O)Nc3ccccc32)c1C`, the half-maximal activity concentration (AC50) reads like this: under setting [2], 17.8 µM [rising, single point]; under setting [1], 25.1 µM [rising, partial curve].

With `CC1CCCC(C)N1C(=O)Cn1c(SCC(=O)Nc2ccc3c(c2)OCO3)nc2ccccc21` (centres undefined), under setting [1], the half-maximal activity concentration (AC50) is 12.6 µM [rising, single point].

Take `CC(C)(C)c1ccccc1OCCOCCNCc1ccccc1`: the AC50 under setting [2] was 11.2 µM [rising, single point].

For `COCCCNC(=S)Nc1ccc(OC(F)F)cc1C`, the AC50 under setting [2] is 31.6 µM [falling, single point].

As to `COc1ccc(OCCCC(=O)Nc2nccs2)cc1`, the AC50 under setting [1] was 2 µM [falling, partial curve].

Turning to `O=C1CCCc2c1cc(-c1ccccc1)n2-c1ccc(O)cc1`, the AC50 under setting [2] is 10 µM [rising, partial curve] and the AC50 under setting [1] was 12.6 µM [rising, partial curve].

Regarding `Cc1ccc(-n2ncc3c(NCCCN4CCCC4=O)ncnc32)c(C)c1`, the concentration at half-maximal activity (AC50) is 1.12 µM [rising, partial curve, poor fit] under setting [2] and 11.2 µM [rising, single point] under setting [1].

As to `COc1ccc(CCc2nnc(CCC(=O)NCc3cc(C(C)C)no3)o2)cc1`, the concentration at half-maximal activity (AC50) is, setting by setting: under setting [2], 2.24 µM [rising, partial curve]; under setting [1], 1.26 µM [rising, partial curve].

As to `COc1ccc(CNC(=O)C(c2ccc(C)o2)N(Cc2cccs2)C(=O)Cc2cccs2)cc1` (centres undefined), the concentration at half-maximal activity (AC50) under setting [1] was 22.4 µM [rising, single point].

As to `CC(=O)OC(C(=O)NC1CCCCC1)c1ccc(C#N)cc1` (centres undefined), the AC50 under setting [2] is 5.62 µM [rising, single point].

Regarding `CCCC(=O)Nc1ccc2c(c1)nc(CN1CCN(C(=O)OCC)CC1)n2C(C)C`, the AC50 under setting [1] is 0.251 µM [rising, full curve].

Turning to `CC(=O)OCC1=C(C(=O)O)N2C(=O)C(NC(=O)C(C)Cn3nc(C)c(Cl)c3C)C2SC1` (centres undefined), the concentration at half-maximal activity (AC50) under setting [2] was 31.6 µM [rising, single point].

`CCOc1ccc(CNC(=O)c2ccc(Sc3ccc(Cl)cc3)c(NC(C)=O)c2)cc1`: the AC50 runs as follows: under setting [2], 17.8 µM [rising, single point]; under setting [1], 25.1 µM [rising, single point].

Turning to `N#Cc1cccc(-c2nc(Nc3ccccc3)c3ccccc3n2)c1`, under setting [1], the half-maximal activity concentration (AC50) was 6.31 µM [falling, partial curve, poor fit].

For `CCCCC1CC(CSC(=N)N)OC1=O` (centres undefined), the AC50 under setting [2] was 15.8 µM [rising, single point].

For the compound `c1ccc2[nH]c(-c3cscn3)nc2c1`, the half-maximal activity concentration (AC50) under setting [2] is 2.24 µM [rising, partial curve, poor fit] and 2.82 µM [rising, partial curve].

For `O=C(Nc1ccc(C(=O)N2CCN(c3ccc(F)cc3)CC2)cc1)c1nsc2ccccc12`, the AC50 under setting [2] is 0.316 µM [rising, partial curve, poor fit].

As for `CCN1CCN(CCCNC(=O)c2ccc3nc(Cc4ccc(OC)cc4)oc3c2)CC1`, the AC50 under setting [1] was 0.00316 µM [falling, full curve, poor fit].

Take `O=C(Nc1nc2nc(-c3ccccc3)cc(-c3ccccc3)n2n1)c1ccco1`: the half-maximal activity concentration (AC50) under setting [1] was 22.4 µM [rising, single point].

As to `CCS(=O)(=O)n1nc(-c2cccnc2)nc1NCc1ccc(F)cc1`, the AC50 under setting [2] was 6.31 µM [rising, single point].

On to `CCCCN(CCCC)c1ncnc2c1cnn2-c1cccc(C)c1`, for which the AC50 under setting [1] is 10 µM [rising, single point].

As to `O=C(NCc1ccc(F)cc1)c1ccc[nH]1`, the AC50 under setting [2] is 0.891 µM [falling, full curve, poor fit] and the AC50 under setting [1] was 1.26 µM [falling, full curve, poor fit].

As for `C#CC[N+](C)(C)CCCCCCCCCC`, the AC50 under setting [2] is 35.5 µM [falling, single point].

For `Cc1ccc([N+](=O)[O-])cc1NC(=O)c1ccc(CSc2ccccc2)cc1`, the concentration at half-maximal activity (AC50) under setting [2] is 5.62 µM [falling, single point].

For `O=C(CCN1CCN(c2ccc(Cl)cc2)CC1)Nc1ccccc1F`, the AC50 was 8.91 µM [rising, partial curve] under setting [2] and 11.2 µM [rising, partial curve] under setting [1].

Regarding `COc1ccc2[nH]cc(CCNc3ncnc4ccc(-c5ccc(C(=O)N(C)C)cc5)cc34)c2c1`, the AC50 reads like this: under setting [2], 20 µM [falling, partial curve]; under setting [1], 35.5 µM [falling, partial curve, poor fit].

Regarding `COc1ccc2cc(CN(Cc3ccco3)C(=S)NCC3CCCO3)c(=O)[nH]c2c1` (centres undefined), the concentration at half-maximal activity (AC50) under setting [2] is 0.00316 µM [falling, full curve, poor fit].

Turning to `CC(=O)N1CCCc2cc(S(=O)(=O)N3CCC(C(=O)N(Cc4ccccc4)C(C)C)CC3)ccc21`, under setting [1], the half-maximal activity concentration (AC50) was 0.02 µM [falling, full curve, poor fit].

With `C=CCNC(=O)c1ccc(-c2nc(-c3ccc(Cl)c(Cl)c3)cs2)cc1`, the AC50 runs as follows: under setting [2], 25.1 µM [falling, partial curve, poor fit]; under setting [1], 35.5 µM [falling, single point].

As to `N#Cc1cc([N+](=O)[O-])ccc1Oc1cccc(/C=N/NC(=O)c2ccc(Cl)cc2)c1`, under setting [1], the concentration at half-maximal activity (AC50) was 22.4 µM [rising, single point].

As for `COc1ccccc1NC(=O)CN1CCC(c2nc3ccccc3[nH]2)CC1`, the AC50 under setting [2] was 0.0224 µM [rising, full curve, poor fit].

With `Cc1ccc(C(=O)Nc2ncc(Cc3ccc(F)cc3)s2)o1`, the concentration at half-maximal activity (AC50) is 31.6 µM [rising, single point] under setting [2] and 15.8 µM [rising, single point] under setting [1].

`O=S(=O)(Nc1ccc(-c2ccc(N3CCCCC3)nn2)cc1)c1ccc(OC(F)(F)F)cc1`: the half-maximal activity concentration (AC50) under setting [2] is 35.5 µM [falling, single point].

For the compound `CCCn1cc(S(=O)(=O)c2cccc(Cl)c2)c(=O)c2cc(F)c(N3CCOCC3)cc21`, the half-maximal activity concentration (AC50) under setting [1] is 2.24 µM [rising, partial curve, poor fit].

On to `Cc1csc(NC(=O)Cc2nn(C)c(=O)c3ccccc23)n1`, for which the half-maximal activity concentration (AC50) was 4.47 µM [rising, single point] under setting [2] and 12.6 µM [rising, single point] under setting [1].

`Cc1ccc(S(=O)(=O)/N=C2/NC(=O)/C(=C/c3ccc(Br)o3)S2)cc1`: the concentration at half-maximal activity (AC50) under setting [1] was 35.5 µM [rising, single point].

Take `CC(C)(C)c1ccc(/C=C/C(=O)Nc2ccncc2)cc1`: the AC50 was 3.98 µM [rising, full curve] under setting [2] and 5.62 µM [rising, full curve] under setting [1].

Broadly, the AC50 is the concentration giving half of the maximal activity seen.
